The list shows only some results of the screen, not a fair sample: its compounds were picked by chemical class. Other doses and runs of a compound may be missing. T/C: endpoint of the treated group in % of that of the vehicle group. Some doses have a count of surviving animals in place of a T/C: the source holds a T/C of zero for them, seemingly a mark for toxic or unscored doses. Some survivor counts are full or nearly so, which does not show that the dose was tolerated: the source hardly ever lists a survival T/C far under the control, and the zero likely stands for such cases as well. Survivors were counted at the toxicity check, usually on the fifth day, unless a day is given; later deaths do not show. Schedules are NCI's codes, read here as Q, the interval in days (D) or hours (H), X, the number of doses. For survival time, the PubChem record calls one and a half times the control and up active, and a quarter to a half above the control has no call in these data; cut-offs in other NCI protocols can differ. Some T/C values carry the count of animals alive at the toxicity check (mostly the fifth day); where neither a count nor a note follows, no animal had died by that day. Some entries were tested several times; their values stand side by side, smallest first.
Tested on: BDF1 mice, B16 melanoma ip, median survival T/C
Assay: NCI In Vivo Anticancer Drug Screen. Data for tumor model B16 Melanoma (intraperitoneal) in B6D2F1 (BDF1) mice
Settings: T/C endpoint: median survival time, higher T/C = longer survival
Outline: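 Read-out: survival or tumor size, given as treated/control ratio. Controls received vehicle only; animals bore transplantable tumors.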

[1] = dose: 12.5 mg/kg/injection, schedule: Q01DX009 (ip), vehicle: saline
[2] = dose: 25.0 mg/kg/injection, schedule: Q01DX009 (ip), vehicle: saline
[3] = dose: 50.0 mg/kg/injection, schedule: Q01DX009 (ip), vehicle: saline
[4] = dose: 50.0 mg/kg/injection, schedule: Q04DX003 (ip), vehicle: saline
[5] = dose: 50.0 mg/kg/injection, schedule: Q08DX002 (ip), vehicle: saline
[6] = dose: 100.0 mg/kg/injection, schedule: Q01DX001 (ip), vehicle: saline
[7] = dose: 100.0 mg/kg/injection, schedule: Q01DX009 (ip), vehicle: saline
[8] = dose: 200.0 mg/kg/injection, schedule: Q01DX009 (ip), vehicle: saline

`NC1CCCCC1.O=P(O)(N(CCCl)CCCl)N1CC1` was tested, and the T/C (dose: 0.8 mg/kg/injection, schedule: Q01DX009 (ip), vehicle: saline) was 91 % of control, the T/C (dose: 1.6 mg/kg/injection, schedule: Q01DX009 (ip), vehicle: saline) was 108 % of control and the T/C (dose: 3.12 mg/kg/injection, schedule: Q01DX009 (ip), vehicle: saline) was 103 % of control. For the same molecule, the T/C (dose: 3.12 mg/kg/injection, schedule: Q04DX003 (ip), vehicle: saline) was 99 % of control, the T/C (dose: 3.12 mg/kg/injection, schedule: Q08DX002 (ip), vehicle: saline) was 111 % of control and the T/C (dose: 3.13 mg/kg/injection, schedule: Q01DX009 (ip), vehicle: saline) was 111 and 134 % of control [9 of 10 alive]. For the same molecule, the T/C (dose: 3.13 mg/kg/injection, schedule: Q04DX009 (ip), vehicle: saline) was 104 % of control, the T/C (dose: 6.25 mg/kg/injection, schedule: Q01DX001 (ip), vehicle: saline) was 101 % of control and the T/C (dose: 6.25 mg/kg/injection, schedule: Q01DX009 (ip), vehicle: saline) was 107, 118, 179 % of control. The T/C (dose: 6.25 mg/kg/injection, schedule: Q04DX003 (ip), vehicle: saline) was 97 % of control, the T/C (dose: 6.25 mg/kg/injection, schedule: Q04DX009 (ip), vehicle: saline) was 101 % of control and the T/C (dose: 6.25 mg/kg/injection, schedule: Q08DX002 (ip), vehicle: saline) was 97 % of control. For the same molecule, the T/C (dose: 12.5 mg/kg/injection, schedule: Q01DX001 (ip), vehicle: saline) was 104 and 125 % of control, the T/C [1] was 106 and 117 % of control and the survivor count [1] was 8 of 10. For the same molecule, the T/C (dose: 12.5 mg/kg/injection, schedule: Q04DX003 (ip), vehicle: saline) was 107 and 155 % of control [9 of 10 alive], the T/C (dose: 12.5 mg/kg/injection, schedule: Q04DX009 (ip), vehicle: saline) was 112 % of control and the T/C (dose: 12.5 mg/kg/injection, schedule: Q08DX002 (ip), vehicle: saline) was 101 and 153 % of control. For the same molecule, the T/C (dose: 25.0 mg/kg/injection, schedule: Q01DX001 (ip), vehicle: saline) was 106 and 132 % of control, the T/C (dose: 25.0 mg/kg/injection, schedule: Q01DX009 (ip), vehicle: saline with Tween-80) was 105 % of control and the T/C [2] was 107 % of control. The survivor count [2] was 9 of 10, the T/C (dose: 25.0 mg/kg/injection, schedule: Q04DX003 (ip), vehicle: saline) was 96 and 186 % of control and the T/C (dose: 25.0 mg/kg/injection, schedule: Q04DX009 (ip), vehicle: saline) was 104 % of control. For the same molecule, the T/C (dose: 25.0 mg/kg/injection, schedule: Q08DX002 (ip), vehicle: saline) was 105 and 193 % of control, the T/C (dose: 50.0 mg/kg/injection, schedule: Q01DX001 (ip), vehicle: saline) was 102 and 157 % of control and the T/C (dose: 50.0 mg/kg/injection, schedule: Q01DX009 (ip), vehicle: saline with Tween-80) was 100 % of control. For the same molecule, the T/C [3] was 111 % of control, the survivor count [3] was 5 of 10 and the T/C [4] was 112 % of control. For the same molecule, the survivor count [4] was 9 of 10, the T/C (dose: 50.0 mg/kg/injection, schedule: Q04DX009 (ip), vehicle: saline) was 104 % of control and the T/C [5] was 105 % of control. For the same molecule, the survivor count [5] was 10 of 10, the T/C [6] was 105 % of control and the survivor count [6] was 8 of 10. The T/C (dose: 100.0 mg/kg/injection, schedule: Q01DX009 (ip), vehicle: saline with Tween-80) was 101 % of control, the T/C [7] was 99 % of control and the survivor count (dose: 100.0 mg/kg/injection, schedule: Q04DX003 (ip), vehicle: saline) was 3 of 10. The T/C (dose: 100.0 mg/kg/injection, schedule: Q04DX009 (ip), vehicle: saline) was 98 % of control [9 of 10 alive], the survivor count (dose: 100.0 mg/kg/injection, schedule: Q08DX002 (ip), vehicle: saline) was 5 of 10 and the survivor count (dose: 200.0 mg/kg/injection, schedule: Q01DX001 (ip), vehicle: saline) was 0 of 10. The T/C [8] was 119 % of control, the survivor count (dose: 200.0 mg/kg/injection, schedule: Q04DX003 (ip), vehicle: saline) was 1 of 10 and the T/C (dose: 200.0 mg/kg/injection, schedule: Q04DX009 (ip), vehicle: saline) was 111 % of control. For the same molecule, the survivor count (dose: 200.0 mg/kg/injection, schedule: Q08DX002 (ip), vehicle: saline) was 2 of 10.

`O=NN1CCN/C1=N\[N+](=O)[O-]` was tested, and the T/C (dose: 50.0 mg/kg/injection, schedule: Q01DX017 (ip), vehicle: saline with Tween-80) was 110 % of control, the T/C (dose: 50.0 mg/kg/injection, schedule: Q02DX009 (ip), vehicle: Klucel (hydroxypropylcellulose) (HPC)) was 118 % of control and the T/C (dose: 50.0 mg/kg/injection, schedule: Q02DX009 (ip), vehicle: saline with Tween-80) was 110 and 115 % of control. The T/C (dose: 100.0 mg/kg/injection, schedule: Q01DX017 (ip), vehicle: saline with Tween-80) was 118 % of control, the T/C (dose: 100.0 mg/kg/injection, schedule: Q02DX009 (ip), vehicle: Klucel (hydroxypropylcellulose) (HPC)) was 123 % of control [9 of 10 alive] and the T/C (dose: 100.0 mg/kg/injection, schedule: Q02DX009 (ip), vehicle: saline with Tween-80) was 116 and 118 % of control. For the same molecule, the T/C (dose: 200.0 mg/kg/injection, schedule: Q01DX017 (ip), vehicle: saline with Tween-80) was 122 % of control [9 of 10 alive], the T/C (dose: 200.0 mg/kg/injection, schedule: Q02DX009 (ip), vehicle: Klucel (hydroxypropylcellulose) (HPC)) was 139 % of control and the T/C (dose: 200.0 mg/kg/injection, schedule: Q02DX009 (ip), vehicle: saline with Tween-80) was 122 [9 of 10 alive] and 125 % of control. For the same molecule, the T/C (dose: 400.0 mg/kg/injection, schedule: Q01DX017 (ip), vehicle: saline with Tween-80) was 139 % of control, the survivor count (dose: 400.0 mg/kg/injection, schedule: Q02DX009 (ip), vehicle: Klucel (hydroxypropylcellulose) (HPC)) was 7 of 10 and the T/C (dose: 400.0 mg/kg/injection, schedule: Q02DX009 (ip), vehicle: saline with Tween-80) was 96 and 139 % of control.

`CC1(C)CN1P(=O)(Nc1ncccn1)N1CC1(C)C` (configuration not stated) was tested, and the T/C [1] was 123 % of control, the T/C [2] was 120 % of control and the T/C [3] was 87 % of control. The T/C [7] was 180 % of control, the T/C [8] was 233 % of control and the survivor count (dose: 400.0 mg/kg/injection, schedule: Q01DX009 (ip), vehicle: saline) was 10 of 10.

`CC(=O)OC(SC(OC(C)=O)C(Cl)(Cl)Cl)C(Cl)(Cl)Cl` (configuration not stated) was tested, and the T/C (dose: 6.25 mg/kg/injection, schedule: Q01DX009 (ip), vehicle: Klucel (hydroxypropylcellulose) (HPC)) was 95 % of control [9 of 10 alive], the T/C (dose: 12.5 mg/kg/injection, schedule: Q01DX009 (ip), vehicle: Klucel (hydroxypropylcellulose) (HPC)) was 101 % of control and the T/C (dose: 21.75 mg/kg/injection, schedule: Q01DX009 (ip), vehicle: Klucel (hydroxypropylcellulose) (HPC)) was 96 % of control. For the same molecule, the T/C (dose: 25.0 mg/kg/injection, schedule: Q01DX009 (ip), vehicle: Klucel (hydroxypropylcellulose) (HPC)) was 88 % of control, the T/C (dose: 43.5 mg/kg/injection, schedule: Q01DX009 (ip), vehicle: Klucel (hydroxypropylcellulose) (HPC)) was 98 % of control and the T/C (dose: 50.0 mg/kg/injection, schedule: Q01DX009 (ip), vehicle: Klucel (hydroxypropylcellulose) (HPC)) was 89 % of control. The T/C (dose: 87.0 mg/kg/injection, schedule: Q01DX009 (ip), vehicle: Klucel (hydroxypropylcellulose) (HPC)) was 97 % of control, the survivor count (dose: 87.0 mg/kg/injection, schedule: Q01DX009 (ip), vehicle: saline with Tween-80) was 10 of 10 and the T/C (dose: 100.0 mg/kg/injection, schedule: Q01DX009 (ip), vehicle: Klucel (hydroxypropylcellulose) (HPC)) was 87 % of control. For the same molecule, the survivor count (dose: 133.0 mg/kg/injection, schedule: Q01DX009 (ip), vehicle: saline with Tween-80) was 10 of 10, the survivor count (dose: 200.0 mg/kg/injection, schedule: Q01DX009 (ip), vehicle: Klucel (hydroxypropylcellulose) (HPC)) was 10 of 10 and the survivor count (dose: 200.0 mg/kg/injection, schedule: Q01DX009 (ip), vehicle: saline with Tween-80) was 9 of 10. The survivor count (dose: 300.0 mg/kg/injection, schedule: Q01DX009 (ip), vehicle: saline with Tween-80) was 9 of 10.
